Measured values from publication PMC11881906, “Development of xanthone derivatives as effective broad-spectrum antimicrobials: Disrupting cell wall and inhibiting DNA synthesis” (Science Advances, 2025).

Tested on: E. coli ATCC 25922
Assay: RNA-seq transcriptome response
Format: cell-based, Escherichia coli
Details: 4× MIC, 2 hours, vs untreated
Protocol: After exposure, 1-ml aliquots of cells were immediately pelleted at 4°C by centrifugation for 2 min at 2000 rpm. The supernatants were removed and immediately frozen in liquid nitrogen. The samples were stored at −80°C for later total RNA isolation. Total RNA was extracted using the bacterial RNA kit (Omega Bio-Tek, USA) according to the manufacturer’s instructions. The RNA integrity number values were obtained to assess RNA quality using an Agilent Genomics 2200 Tape Station instrument.
A total amount of 2 to 5 ng of the RNA per sample was executed as the input material to construct each cDNA library for RNA-seq using the NEBNext Ultra Directional RNA Library prep kit from Illumina. The quality of the resulting libraries was checked using Agilent High Sensitivity DNA chips to ensure proper library size distribution and the absence of small adapters.
Read mapping was aligned using Bowtie2 ([74]). HTSeq v0.6.1 was used for quantification of expression levels ([75]). DESeq2 on the R package (v1.12.4) was used to calculate DEGs. Differential expression was computed using edgeR: exactTest for each treatment versus the untreated control ([76]). The E. coli database used for mapping was GCF_017357505.1_ASM1735750v1_genomic.fna. Both the GO and KEGG (KEGG Ortholog database) enrichment analyses were done with the Fisher’s exact test. […]

## O=C(O)c1cn(C2CC2)c2cc(N3CCNCC3)c(F)cc2c1=O [CPF, ciprofloxacin, reference compound]
  Log2FC cspE (transcription antiterminator/RNA stability regulator CspE): -1.4229
  Log2FC holC (DNA polymerase III subunit chi): 1.1039
